Measured values as given in paper PMC10439933.
These are yes or no findings as the source states them, for the method shown. In cells and extracts the contact can be indirect. Some binding calls cover weakened binding; strength is not graded here. Values belong to the substance of their own block, whether it stands above or below them.

Chains of the proteins cited; added tags and fusions are not shown.
UniProt Q92769: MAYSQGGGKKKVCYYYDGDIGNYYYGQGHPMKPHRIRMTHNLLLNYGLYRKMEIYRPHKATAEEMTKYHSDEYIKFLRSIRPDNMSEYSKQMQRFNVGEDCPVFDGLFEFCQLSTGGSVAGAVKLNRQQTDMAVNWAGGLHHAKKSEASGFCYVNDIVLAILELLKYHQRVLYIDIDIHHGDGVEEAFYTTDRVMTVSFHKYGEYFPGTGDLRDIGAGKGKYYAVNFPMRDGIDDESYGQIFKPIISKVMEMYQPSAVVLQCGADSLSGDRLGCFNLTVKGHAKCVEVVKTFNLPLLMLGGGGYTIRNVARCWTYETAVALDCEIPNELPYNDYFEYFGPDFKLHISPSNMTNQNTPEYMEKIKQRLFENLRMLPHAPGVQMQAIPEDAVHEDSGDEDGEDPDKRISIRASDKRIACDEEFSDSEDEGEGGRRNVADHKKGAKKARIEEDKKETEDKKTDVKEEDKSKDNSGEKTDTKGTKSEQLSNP
UniProt Q13485: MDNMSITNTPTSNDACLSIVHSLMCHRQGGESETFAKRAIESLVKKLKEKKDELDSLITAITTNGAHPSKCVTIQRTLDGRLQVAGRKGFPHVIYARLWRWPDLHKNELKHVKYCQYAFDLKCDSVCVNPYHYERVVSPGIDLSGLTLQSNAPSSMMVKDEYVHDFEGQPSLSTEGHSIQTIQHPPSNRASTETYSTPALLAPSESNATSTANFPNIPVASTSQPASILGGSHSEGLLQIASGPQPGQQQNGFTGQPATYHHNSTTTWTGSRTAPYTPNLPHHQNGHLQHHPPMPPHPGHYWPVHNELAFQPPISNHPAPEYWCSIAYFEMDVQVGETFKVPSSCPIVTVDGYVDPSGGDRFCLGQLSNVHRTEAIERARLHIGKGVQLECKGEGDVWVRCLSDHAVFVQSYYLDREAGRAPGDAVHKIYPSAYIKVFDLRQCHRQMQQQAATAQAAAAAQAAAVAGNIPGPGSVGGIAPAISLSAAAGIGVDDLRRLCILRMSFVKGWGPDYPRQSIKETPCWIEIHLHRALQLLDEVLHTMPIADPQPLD
UniProt P84022: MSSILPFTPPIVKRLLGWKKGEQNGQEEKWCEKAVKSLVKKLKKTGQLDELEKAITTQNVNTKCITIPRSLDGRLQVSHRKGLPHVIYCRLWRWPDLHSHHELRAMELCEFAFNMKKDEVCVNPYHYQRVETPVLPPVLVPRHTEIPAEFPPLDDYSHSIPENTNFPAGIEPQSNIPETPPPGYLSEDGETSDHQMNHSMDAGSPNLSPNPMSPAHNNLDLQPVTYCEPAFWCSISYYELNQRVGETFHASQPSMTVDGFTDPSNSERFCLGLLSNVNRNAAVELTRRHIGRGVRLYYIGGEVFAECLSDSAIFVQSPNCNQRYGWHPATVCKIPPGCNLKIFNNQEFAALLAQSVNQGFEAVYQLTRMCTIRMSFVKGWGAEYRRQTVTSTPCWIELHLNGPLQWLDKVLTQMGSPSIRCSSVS
UniProt Q15796: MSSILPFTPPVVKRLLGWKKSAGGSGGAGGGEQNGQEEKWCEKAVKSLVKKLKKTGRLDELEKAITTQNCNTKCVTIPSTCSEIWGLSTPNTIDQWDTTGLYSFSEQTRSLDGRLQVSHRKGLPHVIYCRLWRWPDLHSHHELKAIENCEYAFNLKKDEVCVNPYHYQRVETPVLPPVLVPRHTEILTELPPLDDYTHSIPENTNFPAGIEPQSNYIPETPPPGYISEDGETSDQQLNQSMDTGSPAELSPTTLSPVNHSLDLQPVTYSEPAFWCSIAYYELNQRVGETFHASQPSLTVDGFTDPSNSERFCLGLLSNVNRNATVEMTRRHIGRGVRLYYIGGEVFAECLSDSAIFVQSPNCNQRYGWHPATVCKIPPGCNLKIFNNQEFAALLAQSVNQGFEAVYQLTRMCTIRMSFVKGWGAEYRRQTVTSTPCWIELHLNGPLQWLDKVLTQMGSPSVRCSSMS

What was measured:
[1] = molecular target: HDAC2 (human (endogenous in patient-derived BTSC lines)) (UniProt Q92769); assay: proximity ligation; in situ PLA (Duolink) in adherent BTSCs fixed in 3.7% formaldehyde; pairs of primary antibodies; PLA foci counted in 30 nuclei; romidepsin or vehicle for 24 h
[2] = molecular target: T1, SKI (human (endogenous in patient-derived BTSC lines)) (UniProt P12755); assay: as above
T1 sequence: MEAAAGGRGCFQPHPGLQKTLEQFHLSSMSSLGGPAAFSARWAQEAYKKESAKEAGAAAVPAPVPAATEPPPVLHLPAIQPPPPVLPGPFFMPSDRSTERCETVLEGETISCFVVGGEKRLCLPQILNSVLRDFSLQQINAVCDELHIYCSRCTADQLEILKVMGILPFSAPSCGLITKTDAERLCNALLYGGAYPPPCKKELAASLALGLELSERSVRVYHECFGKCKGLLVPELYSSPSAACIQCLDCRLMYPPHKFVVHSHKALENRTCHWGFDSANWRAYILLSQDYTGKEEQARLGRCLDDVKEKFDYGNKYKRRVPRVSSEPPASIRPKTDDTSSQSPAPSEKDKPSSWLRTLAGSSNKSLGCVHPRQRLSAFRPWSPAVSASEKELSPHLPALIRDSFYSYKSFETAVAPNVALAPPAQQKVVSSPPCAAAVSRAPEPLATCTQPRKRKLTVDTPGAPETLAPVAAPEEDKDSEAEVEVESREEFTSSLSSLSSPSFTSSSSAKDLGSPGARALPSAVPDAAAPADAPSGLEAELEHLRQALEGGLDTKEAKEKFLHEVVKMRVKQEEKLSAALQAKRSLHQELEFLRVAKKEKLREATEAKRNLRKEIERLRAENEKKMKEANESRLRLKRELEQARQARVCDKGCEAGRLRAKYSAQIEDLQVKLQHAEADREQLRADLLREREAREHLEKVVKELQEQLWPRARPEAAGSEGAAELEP

[3] = molecular target: HDAC2 (human (endogenous in patient-derived BTSC lines)) (UniProt Q92769); assay: co-IP; endogenous proteins of BTSC lines (BT67, BT147); cells dual crosslinked (dithiobis(succinimidyl propionate) 30 min, 1% formaldehyde 10 min); IP buffer 50 mM Tris-HCl pH 8.0, 150 mM NaCl, 1.0 mM EDTA, 0.5% Nonidet P-40; 500 ug extract with 5 ug antibody (HDAC1, HDAC2, SMAD3, SKI or SMAD4) overnight at 4 °C, protein G Dynabeads; also sequential co-IP; cells also treated with romidepsin or DMSO (24, 48, 72 h), with SMAD3 KO, HDAC2 KO or SMAD3 overexpression
[4] = molecular target: T1, SKI (human (endogenous in patient-derived BTSC lines)); assay: as above
[5] = molecular target: SMAD4 (human (endogenous in patient-derived BTSC lines)) (UniProt Q13485); assay: as above
[6] = molecular target: SMAD3 (human (endogenous in patient-derived BTSC lines)) (UniProt P84022); assay: as above
[7] = molecular target: SMAD3, constitutively overexpressed in BT67 cells (AAVS1/SMAD3+) (UniProt P84022); assay: as above
SMAD3, flag-tagged clone = SMAD3, flag-tagged clone (UniProt P84022); assay: co-IP; dual crosslinked HEK293T/17 cells stably expressing C-terminally flag-tagged SMAD3 or HDAC2 clones or empty vector; precipitation with anti-flag antibody

binding (SMAD3, flag-tagged clone): binds
Substance: HDAC2 in HEK293T/17 cells (from UniProt Q92769 1-488)

binding [3]: no binding
Substance: SMAD2 (from UniProt Q15796 1-467)

Continued, substance first:

Substance: SMAD3 (from UniProt P84022 1-425)
binding [1]: binds
binding [2]: binds
binding [3]: binds
binding [4]: binds

Substance: HDAC2 (from UniProt Q92769 1-488)
binding [5]: binds
binding [6]: binds
binding [7]: binds
binding [4]: binds

Substance: phospho-SMAD3 (from UniProt P84022 1-425)
binding [3]: binds
